Source: patent publication US20200146989A1, “A CO-AMORPHOUS FORM OF A SUBSTANCE AND A DIPEPTIDE” (University of Copenhagen, priority 2016, published 2020)
At least one structure is not confirmed: it was looked up by name or label, or the drawing left a doubt.

Key:
[1] = Physical stability of amorphous and co-amorphous samples on dry storage, recrystallization detected by XRPD; assay type: physicochemical; conditions: room temperature and 40° C. dry conditions
Protocol: The X-ray powder diffraction (XRPD) analysis was performed using […] Diffractometer (PANalytical, Almelo, The Netherlands) using a Cu Kα radiation source (λ=1.54187 Å). An acceleration voltage and current of 45 kV and 40 mA were used. Samples were scanned in reflection mode between 5° and 35° 2θ with a scan speed of 0.0673° 2θ/s and a step size of 0.0262°. Data were collected and analyzed using the software X'Pert Data Collector (PANalytical, Almelo, The Netherlands). Samples were filled onto aluminum sample holders and gently compressed with a spatula, in order to contain a compacted and smooth surface. The pure amorphous drugs and co-amorphous mixtures were stored under dry conditions in desiccators at room temperature and 40° C.

[2] = Powder dissolution, miniaturized USP 2 set-up; assay type: physicochemical; conditions: 0.1 M phosphate buffer pH 6.8, 37° C., 100 rpm; listed as amorphous TAD
Protocol: Powder dissolution studies were performed in an ERWEKA DT70 dissolution tester (Heusenstamm, Germany) equipped with a custom-made miniaturized dissolution set-up described earlier [DOI: 10.1208/s12249-008-9161-6]. This set-up is a down-scaled version (the vessel size is 250 mL) of USP apparatus 2, and the hydrodynamics is essentially similar to the standard USP 2 apparatus. Pure drugs, drug-ASPA mixtures or drug-dipeptide mixtures containing an equivalent amount of 5 mg of MEB or 5 mg of TAD in total were placed in 100 ml of 0.1 M phosphate buffer (pH 6.8, 37° C.) and stirred at a rotation speed of 100 rpm. At predetermined time points (2, 5, 10, 20, 30, 60, 120, 180, 240, 300 and 360 min), 1 ml sample was withdrawn and immediately replaced with pre-warmed dissolution buffer. The obtained samples were quantified after filtration (0.45 μm) with the respective HPLC method for the different drugs as described below. All dissolution experiments were conducted in triplicate.
All samples from the dissolution studies were analyzed on a Dionex (Germering, Germany) HPLC system equipped with a P680 pump, an ASI-100 automated sample injector and a PDA 100 photodiode array detector was used. […] Chromatograms were analyzed by using Chromeleon Version 7.1.3.2425 software. […]

## CN1CC(=O)N2[C@H](c3ccc4c(c3)OCO4)c3[nH]c4ccccc4c3C[C@@H]2C1=O [TAD, Tadalafil]
[1]
  physical state on storage (in words): remained amorphous
[2]
  powder dissolution rate and supersaturation (in words): higher dissolution rate
